Reference: the supplement of paper PMC8728848
Some of the results follow.

Columns and labels:
Experiment in all cases: glycan array binding signal (z-score within array); higher = stronger binding
Conditions in all cases: glycan notation: IUPAC condensed, linker removed
[1] = target: Fuc(a1-2)Gal
Method in brief: (§1)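 Arrays were curated from the Consortium for Functional Glycomics database, 3228 in total, and kept only where the protein sequence was available. Binding is expressed as a within-array Z-score. This score was averaged across arrays of the same protein sequence at different concentrations or buffers and across linkers, and negative values can be read as non-binding.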

[2] = target: Fuc(a1-2)Gal(b1-3)GalNAc
Method in brief: as §1

[3] = target: Fuc(a1-2)Gal(b1-3)GalNAc(a1-3)[Fuc(a1-2)]Gal(b1-4)Glc
Method in brief: as §1

[4] = target: Fuc(a1-2)Gal(b1-3)GalNAc(a1-3)[Fuc(a1-2)]Gal(b1-4)GlcNAc
Method in brief: as §1

[5] = target: Fuc(a1-2)Gal(b1-3)GalNAc(b1-3)Gal
Method in brief: as §1

[6] = target: Fuc(a1-2)Gal(b1-3)GalNAc(b1-3)Gal(a1-4)Gal(b1-4)Glc
Method in brief: as §1

[7] = target: Fuc(a1-2)Gal(b1-3)GalNAc(b1-4)[Neu5Ac(a2-3)]Gal(b1-4)Glc
Method in brief: as §1

[8] = target: Fuc(a1-2)Gal(b1-3)GlcNAc
Method in brief: as §1

[9] = target: Fuc(a1-2)Gal(b1-3)GlcNAc(b1-2)Man(a1-3)[Fuc(a1-2)Gal(b1-3)GlcNAc(b1-2)Man(a1-6)]Man(b1-4)GlcNAc(b1-4)GlcNAc
Method in brief: as §1

[10] = target: Fuc(a1-2)Gal(b1-3)GlcNAc(b1-2)Man(a1-3)[Fuc(a1-2)Gal(b1-3)GlcNAc(b1-2)Man(a1-6)]Man(b1-4)GlcNAc(b1-4)[Fuc(a1-6)]GlcNAc
Method in brief: as §1

[11] = target: Fuc(a1-2)Gal(b1-3)GlcNAc(b1-3)Gal(b1-4)Glc
Method in brief: as §1

[12] = target: Fuc(a1-2)Gal(b1-3)GlcNAc(b1-3)GalNAc
Method in brief: as §1

[13] = target: Fuc(a1-2)Gal(b1-3)GlcNAc(b1-3)[Fuc(a1-2)Gal(b1-3)GlcNAc(b1-6)]GalNAc
Method in brief: as §1

[14] = target: Fuc(a1-2)Gal(b1-3)GlcNAc(b1-3)[Gal(b1-4)GlcNAc(b1-6)]Gal(b1-4)Glc
Method in brief: as §1

[15] = target: Fuc(a1-2)Gal(b1-3)GlcNAc(b1-3)[Neu5Ac(a2-6)Gal(b1-4)GlcNAc(b1-6)]Gal(b1-4)Glc
Method in brief: as §1

[16] = target: Fuc(a1-2)Gal(b1-3)GlcNAc6S
Method in brief: as §1

[17] = target: Fuc(a1-2)Gal(b1-3)[Fuc(a1-4)]GlcNAc
Method in brief: as §1

[18] = target: Fuc(a1-2)Gal(b1-3)[Fuc(a1-4)]GlcNAc(b1-2)Man(a1-3)[Fuc(a1-2)Gal(b1-3)[Fuc(a1-4)]GlcNAc(b1-2)Man(a1-3)]Man(b1-4)GlcNAc(b1-4)GlcNAc
Method in brief: as §1

[19] = target: Fuc(a1-2)Gal(b1-3)[Fuc(a1-4)]GlcNAc(b1-2)Man(a1-3)[Fuc(a1-2)Gal(b1-3)[Fuc(a1-4)]GlcNAc(b1-2)Man(a1-6)]Man(b1-4)GlcNAc(b1-4)[Fuc(a1-6)]GlcNAc(b1-4)[Fuc(a1-6)]GlcNAc
Method in brief: as §1

[20] = target: Fuc(a1-2)Gal(b1-3)[Fuc(a1-4)]GlcNAc(b1-3)[Fuc(a1-3)[Gal(b1-4)]GlcNAc(b1-6)]Gal(b1-4)Glc
Method in brief: as §1

[21] = target: Fuc(a1-2)Gal(b1-3)[Fuc(a1-4)]GlcNAc(b1-3)[Gal(b1-4)GlcNAc(b1-6)]Gal(b1-4)Glc
Method in brief: as §1

[22] = target: Fuc(a1-2)Gal(b1-4)Glc
Method in brief: as §1

[23] = target: Fuc(a1-2)Gal(b1-4)Glc6S
Method in brief: as §1

[24] = target: Fuc(a1-2)Gal(b1-4)GlcNAc
Method in brief: as §1

[25] = target: Fuc(a1-2)Gal(b1-4)GlcNAc(b1-2)Man
Method in brief: as §1

[26] = target: Fuc(a1-2)Gal(b1-4)GlcNAc(b1-2)Man(a1-3)[Fuc(a1-2)Gal(b1-4)GlcNAc(b1-2)Man(a1-6)]Man(b1-4)GlcNAc(b1-4)GlcNAc
Method in brief: as §1

[27] = target: Fuc(a1-2)Gal(b1-4)GlcNAc(b1-2)Man(a1-3)[Fuc(a1-2)Gal(b1-4)GlcNAc(b1-2)Man(a1-6)]Man(b1-4)GlcNAc(b1-4)[Fuc(a1-6)]GlcNAc
Method in brief: as §1

[28] = target: Fuc(a1-2)Gal(b1-4)GlcNAc(b1-2)[Fuc(a1-2)Gal(b1-4)GlcNAc(b1-4)]Man(a1-3)[Fuc(a1-2)Gal(b1-4)GlcNAc(b1-2)Man(a1-6)]Man(b1-4)GlcNAc(b1-4)GlcNAc
Method in brief: as §1

[29] = target: Fuc(a1-2)Gal(b1-4)GlcNAc(b1-3)Gal(b1-4)GlcNAc
Method in brief: as §1

[30] = target: Fuc(a1-2)Gal(b1-4)GlcNAc(b1-3)Gal(b1-4)GlcNAc(b1-2)Man(a1-3)[Fuc(a1-2)Gal(b1-4)GlcNAc(b1-3)Gal(b1-4)GlcNAc(b1-2)Man(a1-6)]Man(b1-4)GlcNAc(b1-4)GlcNAc
Method in brief: as §1

B1: Lb MiSSP8 (Laccaria bicolor) (protein)
chain: MYFHTLFACATLMLITTAHASPTVINSLDSRKADLNGDVEARHAADWRRDSDWRRDSDWRRDSDWRRDSD
B1 was tested. Which “glycan array binding signal (z-score)” value [1] did it give?
The value was 0.941.

What about the “glycan array binding signal (z-score)” value [2] of the same binder?
Its value is -0.15.

And the “glycan array binding signal (z-score)” value [3]?
The value was -0.661.

And the “glycan array binding signal (z-score)” value [4]?
The value was -0.785.

What about the “glycan array binding signal (z-score)” value [5] of the same binder?
Its value is 1.16.

And the “glycan array binding signal (z-score)” value [6]?
The value was 0.285.

What about the “glycan array binding signal (z-score)” value [7] of the same binder?
Its value is -0.488.

What about the “glycan array binding signal (z-score)” value [8] of the same binder?
The value was -0.682.

What about the “glycan array binding signal (z-score)” value [9] of the same binder?
Its value is 1.36.

What about the “glycan array binding signal (z-score)” value [10] of the same binder?
The value was 1.26.

What about the “glycan array binding signal (z-score)” value [11] of the same binder?
The value was -0.461.

And the “glycan array binding signal (z-score)” value [12]?
Its value is -0.53.

What about the “glycan array binding signal (z-score)” value [13] of the same binder?
Its value is 0.34.

And the “glycan array binding signal (z-score)” value [14]?
The value was 0.202.

And the “glycan array binding signal (z-score)” value [15]?
Its value is -0.267.

And the “glycan array binding signal (z-score)” value [16]?
Its value is -0.005.

And the “glycan array binding signal (z-score)” value [17]?
Its value is -0.26.

And the “glycan array binding signal (z-score)” value [18]?
Its value is 1.44.

What about the “glycan array binding signal (z-score)” value [19] of the same binder?
Its value is 0.637.

And the “glycan array binding signal (z-score)” value [20]?
The value was -0.178.

And the “glycan array binding signal (z-score)” value [21]?
Its value is 0.098.

And the “glycan array binding signal (z-score)” value [22]?
The value was -0.205.

What about the “glycan array binding signal (z-score)” value [23] of the same binder?
The value was 0.354.

What about the “glycan array binding signal (z-score)” value [24] of the same binder?
Its value is -0.16.

What about the “glycan array binding signal (z-score)” value [25] of the same binder?
Its value is 0.016.

And the “glycan array binding signal (z-score)” value [26]?
The value was 0.271.

What about the “glycan array binding signal (z-score)” value [27] of the same binder?
The value was 0.699.

And the “glycan array binding signal (z-score)” value [28]?
The value was 0.844.

What about the “glycan array binding signal (z-score)” value [29] of the same binder?
The value was -0.509.

And the “glycan array binding signal (z-score)” value [30]?
The value was 1.42.
